PubChem BioAssay AID1508588 – Peter MacCallum Cancer Centre – 2020
The deposit covers about 18,000 reagents; below is an unselected part. Over the whole deposit, 790 (4.4%) were called active. 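Calls rest on a combination of fold-change classes in drug and vehicle arms, not all shown here.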 Unmarked entries are inactive. A reagent listed more than once was tested more than once; the source does not tell the runs apart.

- Assay: 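Which gene losses make BRAF-mutant melanoma cells more responsive to vemurafenib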 (primary screen)
- System: human WM266.4 melanoma cells (BRAF V600 mutant)
- Reagent: siRNA pool against human genes, 40 nM
- Duration: 96 h from transfection to read-out
- Challenge: vemurafenib 300 nM (about IC25), added 48 h after transfection, for 48 h; comparison arm got DMSO vehicle only
- Read-out: 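Cell gain (DAPI nuclei at end minus before drug, mean of two replicates) and medium lactate by absorbance per cell, both as ratio to non-targeting siRNA, also grouped into fold-change classes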
- Reading the numbers: cell gain with vemurafenib: higher = more cell gain than with non-targeting siRNA; lactate per cell with vemurafenib: higher = more lactate made per cell
- Call rule: 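a knock-down counts as enhancing when its fold-change classes with vehicle and with vemurafenib, taken together, show a stronger drug effect on cell gain or lactate per cell; exact class pairs not stated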
- Calls: active = enhances vemurafenib effect; inactive = no enhancement seen

The first 3 entries, to show the layout:
no.	Gene	cell gain with vemurafenib	lactate per cell with vemurafenib
1	CASKIN1 (CASK interacting protein 1)	0.93	0.89
2	TEKT5 (tektin 5)	0.37	1.34
3	IL17RB (interleukin 17 receptor B)	0.55	0.42

Results, repeating the preview:
no.	Gene	cell gain with vemurafenib	lactate per cell with vemurafenib
1	CASKIN1 (CASK interacting protein 1)	0.93	0.89
2	TEKT5 (tektin 5)	0.37	1.34
3	IL17RB (interleukin 17 receptor B)	0.55	0.42
4	NR5A1 (nuclear receptor subfamily 5 group A member 1)	0.48	0.62
5	EIF4E (eukaryotic translation initiation factor 4E)	0.47	0.94
6	SOHLH2	0.92	0.94
7	MUS81 (MUS81 structure-specific endonuclease subunit)	0.69	0.65
8	HS3ST5 (heparan sulfate-glucosamine 3-sulfotransferase 5)	0.55	1.27
9	RNF122 (ring finger protein 122)	1.03	0.65
10	PPIH (peptidylprolyl isomerase H)	0.65	0.78
11	VGLL1 (vestigial like family member 1)	0.63	1.08
12	HSPB6 (heat shock protein family B (small) member 6)	0.51 (active)	0.12
13	RBM44 (RNA binding motif protein 44)	0.49	0.7
14	TGIF2LY (TGFB induced factor homeobox 2 like Y-linked)	0.34	1.23
15	FGFBP2 (fibroblast growth factor binding protein 2)	0.6	1.37
16	SLC25A2	0.49	0.91
17	IFIH1 (interferon induced with helicase C domain 1)	0.19	0.91
18	HTRA2 (HtrA serine peptidase 2)	0.51	1.6
19	PI16 (peptidase inhibitor 16)	0.89	0.82
20	OR14C36 (olfactory receptor family 14 subfamily C member 36)	0.5	2.06
21	RPL10A (ribosomal protein L10a)	-0.03	2.27
22	ST3GAL3 (ST3 beta-galactoside alpha-2,3-sialyltransferase 3)	0.29	1.48
23	LINC00471 (long independently transcribed non-coding RNA 471)	0.46	1.98
24	S100P (S100 calcium binding protein P)	0.15	0.2
25	FTO (FTO alpha-ketoglutarate dependent dioxygenase)	1.19	0.98
26	CXorf66 (chromosome X open reading frame 66)	0.62	0.66
27	EIF4H (eukaryotic translation initiation factor 4H)	0.52	0.89
28	KIDINS220 (kinase D interacting substrate 220)	0.49	0.96
29	ACTRT2 (actin related protein T2)	0.65	1.19
30	USP30 (ubiquitin specific peptidase 30)	0.78	0.7
31	RASA3 (RAS p21 protein activator 3)	1.23	0.9
32	PIDD1 (p53-induced death domain protein 1)	0.81	0.4
33	EMID1 (EMI domain containing 1)	0.65	1
34	DLEU7 (deleted in lymphocytic leukemia 7)	0.61	0.66
35	ETV1 (ETS variant transcription factor 1)	1.2	0.98
36	RPS23 (ribosomal protein S23)	-0.05	3.7
37	GATM (glycine amidinotransferase)	0.21	1.44
38	MAU2	0.17	2.02
39	UNC13D (unc-13 homolog D)	0.82	0.68
40	MICOS13	0.85	0.64
41	IL33 (interleukin 33)	0.25	1.36
42	OR6K2 (olfactory receptor family 6 subfamily K member 2)	1.04	0.44
43	MIA3 (MIA SH3 domain ER export factor 3)	0.91	1.33
44	IFRD1 (interferon related developmental regulator 1)	0.62	0.71
45	ZNF674 (zinc finger protein 674)	0.48	0.84
46	NOTCH2NLA (notch 2 N-terminal like A)	0.25	0.96
47	LARP4 (La ribonucleoprotein 4)	0.83	0.65
48	FMNL1 (formin like 1)	0.77	0.64
49	GLRA2 (glycine receptor alpha 2)	0.59	0.72
50	COL2A1 (collagen type II alpha 1 chain)	0.32	1.3
51	BACE1 (beta-secretase 1)	-0.09	1.1
52	LRRC14B (leucine rich repeat containing 14B)	0.81	1.56
53	HIC2 (HIC ZBTB transcriptional repressor 2)	0.5	0.83
54	PFKFB4 (6-phosphofructo-2-kinase/fructose-2,6-biphosphatase 4)	0.24	1.09
55	PFKFB4 (6-phosphofructo-2-kinase/fructose-2,6-biphosphatase 4)	0.29	1.12
56	TJAP1 (tight junction associated protein 1)	0.37	0.61
57	PIP5K1A (phosphatidylinositol-4-phosphate 5-kinase type 1 alpha)	1.01	0.84
58	PEAR1 (platelet endothelial aggregation receptor 1)	0.87	0.76
59	MAPK6 (mitogen-activated protein kinase 6)	0.82 (active)	0.46
60	ETV4 (ETS variant transcription factor 4)	0.52	0.97
61	IGSF8 (immunoglobulin superfamily member 8)	0.84	1.01
62	WDR74 (WD repeat domain 74)	0.32	1.07
63	SPANXA1	0.04	1.44
64	TRMT1L (tRNA methyltransferase 1L)	0.96	0.62
65	RAB5C (RAB5C, member RAS oncogene family)	0.68	0.88
66	GPR12 (G protein-coupled receptor 12)	0.52	1.17
67	ANXA10 (annexin A10)	0.26	0.63
68	KRT38 (keratin 38)	0.34	0.12
69	PPA1 (inorganic pyrophosphatase 1)	-0.02	2.84
70	HAVCR2 (hepatitis A virus cellular receptor 2)	0.42	1.04
71	ATP6V0C (ATPase H+ transporting V0 subunit c)	0.4	1.41
72	ONECUT1 (one cut homeobox 1)	0.92	1.06
73	KRT2 (keratin 2)	0.39	1.01
74	SPATA31H1 (SPATA31 subfamily H member 1)	0.18	1.37
75	NEK5 (NIMA related kinase 5)	1.01	0.96
76	TAB1 (TGF-beta activated kinase 1 (MAP3K7) binding protein 1)	0.61	0.77
77	GTF2E1 (general transcription factor IIE subunit 1)	0.53	0.98
78	TCL1A (TCL1 family AKT coactivator A)	0.69	0.8
79	ASPA (aspartoacylase)	0.52	0.43
80	OR51I2 (olfactory receptor family 51 subfamily I member 2)	0.63	1.43
81	MT1F (metallothionein 1F)	0.64	1.42
82	PTPRK (protein tyrosine phosphatase receptor type K)	0.71	1.53
83	DDX5 (DEAD-box helicase 5)	0.17	1.08
84	OR6C65 (olfactory receptor family 6 subfamily C member 65)	0.72	1.3
